Values quoted from earlier work, collected in US6093702A, “Mixtures of dideoxy-nucleosides and hydroxycarbamide for inhibiting retroviral spread” (The United States of America as represented by the …, priority 1995, dated 2000).
At least one read-out could not be matched to a standard name with certainty.

Conditions: Yarchoan et al, New Engl. J. Med. 321 726-738 (1989); read-out: plasma concentration achievable under treatment conditions; cited from earlier work

For `O=c1[nH]cnc2c1ncn2[C@H]1CC[C@@H](CO)O1` [ddI, 2',3'-dideoxy-inosine], the Cmax is listed as 10 µM.
